Results as given in PubChem BioAssay AID248 (DTP/NCI, 2004).
The list is a part of this screen's results and no random one: it is rich in T/C values a quarter to a half above the control, in often repeated tests (any T/C) and in doses without a T/C. Further doses and runs are listed elsewhere. T/C: endpoint of the treated group in % of that of the vehicle group. Some entries give survivors of the animals treated and no T/C: the source holds a T/C of zero for them, seemingly a mark for toxic or unscored doses. Some survivor counts are full or nearly so, which does not show that the dose was tolerated: survival well below the control is almost never listed, so the zero probably covers shortened survival too. Survivors were counted at the toxicity check, usually on the fifth day, unless a day is given; later deaths do not show. Schedules are NCI's codes, read here as Q, the interval in days (D) or hours (H), X, the number of doses. Some schedule codes hold Z or #, which are not explained here. For survival time, the PubChem record calls one and a half times the control and up active, and a quarter to a half above the control has no call in these data; cut-offs in other NCI protocols can differ.

Test system: L1210 leukemia ip in BDF1 mice, survival T/C
Test: NCI In Vivo Anticancer Drug Screen. Data for tumor model L1210 Leukemia (intraperitoneal) in B6D2F1 (BDF1) mice
Details: T/C endpoint: mean survival time, higher T/C = longer survival
[1] = dose: 300.0 mg/kg/injection, schedule: Q01DX001 (ip), vehicle: saline
[2] = dose: 200.0 mg/kg/injection, schedule: Q04DX003 (ip), vehicle: saline with Tween-80
[3] = dose: 400.0 mg/kg/injection, schedule: Q04DX003 (ip), vehicle: saline with Tween-80
[4] = dose: 400.0 mg/kg/injection, schedule: Q01DX001 (ip), vehicle: saline
[5] = dose: 400.0 mg/kg/injection, schedule: Q01DX009 (ip), vehicle: Klucel (hydroxypropylcellulose) (HPC)

Nc1ncnc2c1ncn2C1OC(COS(N)(=O)=O)C(O)C1O (stereo unspecified)
survivor count (dose: 1.0 mg/kg/injection, schedule: Q01DX001 (ip), vehicle: saline): 0 of 6
survivor count (dose: 2.0 mg/kg/injection, schedule: Q01DX001 (ip), vehicle: saline): 0 of 6
survivor count (dose: 4.0 mg/kg/injection, schedule: Q01DX001 (ip), vehicle: saline): 0 of 6
survivor count (dose: 5.0 mg/kg/injection, schedule: Q01DX001 (ip), vehicle: saline): 0 of 6
survivor count (dose: 8.0 mg/kg/injection, schedule: Q01DX001 (ip), vehicle: saline): 0 of 6
survivor count (dose: 10.0 mg/kg/injection, schedule: Q01DX001 (ip), vehicle: saline): 0 of 6
survivor count (dose: 20.0 mg/kg/injection, schedule: Q01DX001 (ip), vehicle: saline): 0 of 6
survivor count (dose: 40.0 mg/kg/injection, schedule: Q01DX001 (ip), vehicle: saline): 0 of 6
survivor count (dose: 75.0 mg/kg/injection, schedule: Q01DX001 (ip), vehicle: saline): 0 of 6
survivor count (dose: 80.0 mg/kg/injection, schedule: Q01DX001 (ip), vehicle: saline): 0 of 6
survivor count (dose: 150.0 mg/kg/injection, schedule: Q01DX001 (ip), vehicle: saline): 0 of 6
survivor count [1]: 0 of 6

C=CC/C=C/CCC
survivor count (dose: 100.0 mg/kg/injection, schedule: Q01DX001 (ip), vehicle: carboxymethylcellulose (CMC)): 4 of 4

Cc1ccc(NC(=O)Nc2ccc(C3=NCCN3)cc2)cc1NC(=O)Nc1ccc(C2=NCCN2)cc1
survivor count (dose: 37.5 mg/kg/injection, schedule: Q01DX Z (ip), vehicle: water): 2 of 6
survivor count (dose: 75.0 mg/kg/injection, schedule: Q01DX Z (ip), vehicle: water): 2 of 6
survivor count (dose: 150.0 mg/kg/injection, schedule: Q01DX Z (ip), vehicle: water): 3 of 6
survivor count (dose: 300.0 mg/kg/injection, schedule: Q01DX Z (ip), vehicle: water): 0 of 6

O=C(/C=N/O)c1cccnc1
survivor count [2]: 3 of 6
survivor count [3]: 2 of 6

CN(C)CCCCNc1ccc(NCCCCN(C)C)c2c1C(=O)c1c(O)ccc(O)c1C2=O
survivor count (dose: 400.0 mg/kg/injection, schedule: Q04DX002 (ip), vehicle: saline): 2 of 3

Cc1ccc2nc(N=C(N)N)[nH]c2c1
survivor count [1]: 0 of 6

NC(=Nc1ccccc1)c1ccc(C(N)=Nc2ccccc2)cc1
survivor count (dose: 120.0 mg/kg/injection, schedule: Q01DX Z (ip), vehicle: carboxymethylcellulose (CMC)): 0 of 6

O=C(O)CC(Br)CBr (stereo unspecified)
survivor count [4]: 1 of 4

COS(=O)(=O)CCC[N+](C)(C)C
survivor count (dose: 100.0 mg/kg/injection, schedule: Q01DX001 (ip), vehicle: saline): 0 of 4
survivor count (dose: 200.0 mg/kg/injection, schedule: Q01DX001 (ip), vehicle: saline): 0 of 4
survivor count [4]: 0 of 4

ClC1=CC2CCC1C21CC1 (stereo unspecified)
survivor count (dose: 400.0 mg/kg/injection, schedule: Q01DX005 (ip), vehicle: saline with Tween-80): 3 of 3

NNc1nc2ccccc2o1
survivor count (dose: 75.0 mg/kg/injection, schedule: Q01DX009 (ip), vehicle: saline with Tween-80): 0 of 6
survivor count (dose: 150.0 mg/kg/injection, schedule: Q01DX009 (ip), vehicle: saline with Tween-80): 0 of 6
survivor count (dose: 300.0 mg/kg/injection, schedule: Q01DX009 (ip), vehicle: saline with Tween-80): 0 of 6

O=C1CCN/C(=N\[N+](=O)[O-])N1
survivor count (dose: 400.0 mg/kg/injection, schedule: Q01DX001 (ip), vehicle: saline with Tween-80): 3 of 6

CC(=O)c1cccc(NC(=O)Oc2ccc(Cl)cc2Cl)c1
survivor count [5]: 1 of 6

CC(=O)[C@]1(O)Cc2c(O)c3c(c(O)c2[C@@H](OC2CC(N)C(O)C(C)O2)C1)C(=O)c1c(O)cccc1C3=O (stereo partly specified)
T/C (dose: 0.05 mg/kg/injection, schedule: Q01DX009 (ip), vehicle: saline): 133 % of control
T/C (dose: 0.1 mg/kg/injection, schedule: Q01DX001 (ip), vehicle: saline): 129 % of control
T/C (dose: 0.1 mg/kg/injection, schedule: Q01DX009 (ip), vehicle: saline): 126 % of control
T/C (dose: 0.2 mg/kg/injection, schedule: Q01DX009 (ip), vehicle: saline): 138 % of control
T/C (dose: 0.2 mg/kg/injection, schedule: Q03DX003 (ip), vehicle: saline): 140 % of control
T/C (dose: 0.4 mg/kg/injection, schedule: Q01DX001 (ip), vehicle: saline): 143 % of control

COc1cc(C)oc(=O)c1
survivor count (dose: 100.0 mg/kg/injection, schedule: Q01DX009 (ip), vehicle: saline with Tween-80): 6 of 6
survivor count (dose: 200.0 mg/kg/injection, schedule: Q01DX009 (ip), vehicle: saline with Tween-80): 6 of 6

CSc1ccc(NC(=O)Oc2cc(C)ccc2C(C)C)cc1
survivor count (dose: 200.0 mg/kg/injection, schedule: Q01DX009 (ip), vehicle: Klucel (hydroxypropylcellulose) (HPC)): 6 of 6

CN(C)S(=O)(=O)c1ccc(NC(=O)C(Cl)(Cl)Cl)cc1
survivor count [5]: 6 of 6

CNC(=O)N(C)Cc1ccco1
survivor count [5]: 2 of 6

C=CC1CNCCC1CC(=O)OCC (stereo unspecified)
survivor count [4]: 0 of 6

CCCCCCCC/C=C\CCCCCCCCNP(=O)(OCCCCCCCCCCCC)OCCCCCCCCCCCC
T/C (dose: 200.0 mg/kg/injection, schedule: Q04DX002 (ip), vehicle: saline with Tween-80): 130 % of control

Oc1ccccc1OB(Oc1ccccc1O)N(CCCl)CCCl
survivor count (dose: 200.0 mg/kg/injection, schedule: Q01DX001 (ip), vehicle: other): 3 of 6
survivor count (dose: 400.0 mg/kg/injection, schedule: Q01DX001 (ip), vehicle: other): 0 of 6

N#Cc1ccccc1NC(=O)N(CCCl)N=O
T/C (dose: 4.0 mg/kg/injection, schedule: Q01DX001 (ip), vehicle: carboxymethylcellulose (CMC)): 139 % of control
T/C (dose: 8.0 mg/kg/injection, schedule: Q01DX001 (ip), vehicle: carboxymethylcellulose (CMC)): 133 % of control
T/C (dose: 15.0 mg/kg/injection, schedule: Q01DX001 (ip), vehicle: carboxymethylcellulose (CMC)): 134 % of control
T/C (dose: 20.0 mg/kg/injection, schedule: Q01DX001 (ip), vehicle: carboxymethylcellulose (CMC)): 135 % of control
T/C (dose: 30.0 mg/kg/injection, schedule: Q01DX001 (ip), vehicle: carboxymethylcellulose (CMC), evaluated on day 30): 134 % of control
T/C (dose: 30.0 mg/kg/injection, schedule: Q01DX001 (ip), vehicle: carboxymethylcellulose (CMC), run until all animals had died): 132 % of control
T/C (dose: 45.0 mg/kg/injection, schedule: Q01DX001 (ip), vehicle: carboxymethylcellulose (CMC)): 126 % of control
survivor count (dose: 45.0 mg/kg/injection, schedule: Q01DX009 (ip), vehicle: carboxymethylcellulose (CMC)): 4 of 6
survivor count (dose: 60.0 mg/kg/injection, schedule: Q01DX001 (ip), vehicle: carboxymethylcellulose (CMC)): 4 of 6
survivor count (dose: 75.0 mg/kg/injection, schedule: Q01DX001 (ip), vehicle: carboxymethylcellulose (CMC)): 5 of 6
survivor count (dose: 150.0 mg/kg/injection, schedule: Q01DX001 (ip), vehicle: carboxymethylcellulose (CMC)): 0 of 6
survivor count (dose: 300.0 mg/kg/injection, schedule: Q01DX001 (ip), vehicle: carboxymethylcellulose (CMC)): 0 of 6

S=C=Nc1ccc(Cl)cc1
survivor count [2]: 5 of 6
survivor count [3]: 0 of 6

C1CNC(SCCOCCOCCSC2=NCCN2)=N1
survivor count (dose: 100.0 mg/kg/injection, schedule: Q01DX009 (ip), vehicle: saline): 2 of 6
survivor count (dose: 200.0 mg/kg/injection, schedule: Q01DX009 (ip), vehicle: saline): 0 of 6
survivor count (dose: 400.0 mg/kg/injection, schedule: Q01DX009 (ip), vehicle: saline): 0 of 6

O=C(/C=C/C(=O)c1ccccc1)c1ccccc1
survivor count (dose: 400.0 mg/kg/injection, schedule: Q04DX002 (ip), vehicle: Klucel (hydroxypropylcellulose) (HPC)): 0 of 3

OCCNCc1ccc2ccccc2c1
survivor count (dose: 300.0 mg/kg/injection, schedule: Q01DX015 (ip), vehicle: saline): 0 of 6
